Test results published in patent publication US20180030127A1.
Results are given in words; binding and its absence hold for the method and conditions named. Some binding calls cover weakened binding; strength is not graded here.

By UniProt entry, the sequences of proteins in these tests, tags left out. Residues count along the entry.
UniProt P07724, residues 25-608: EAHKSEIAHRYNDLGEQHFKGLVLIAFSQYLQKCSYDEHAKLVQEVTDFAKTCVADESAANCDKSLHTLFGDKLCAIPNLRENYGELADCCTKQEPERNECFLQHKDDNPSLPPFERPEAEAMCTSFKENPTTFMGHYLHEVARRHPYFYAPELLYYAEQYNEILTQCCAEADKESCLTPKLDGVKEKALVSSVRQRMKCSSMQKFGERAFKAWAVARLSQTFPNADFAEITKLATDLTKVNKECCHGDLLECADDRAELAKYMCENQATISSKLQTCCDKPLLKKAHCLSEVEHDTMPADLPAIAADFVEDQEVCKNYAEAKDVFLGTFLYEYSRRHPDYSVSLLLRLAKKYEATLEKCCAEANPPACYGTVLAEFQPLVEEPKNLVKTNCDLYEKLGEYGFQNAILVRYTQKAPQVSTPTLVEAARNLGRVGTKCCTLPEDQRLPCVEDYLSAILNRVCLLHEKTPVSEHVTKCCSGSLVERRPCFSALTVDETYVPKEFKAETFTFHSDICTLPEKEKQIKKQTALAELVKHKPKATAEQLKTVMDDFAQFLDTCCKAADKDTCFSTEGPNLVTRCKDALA

Key:
[1] = target: mouse serum albumin (mouse) (UniProt P07724); assay: ELISA at pH 7.4: purified soluble Fab titrated on antigen coated at 5 ug/ml; anti-human kappa L chain pAb-HRPO, TMB, A450
[2] = target: mouse serum albumin (mouse) (UniProt P07724); assay: ELISA at pH 6.0: purified soluble Fab titrated on antigen coated at 5 ug/ml; anti-human kappa L chain pAb-HRPO, TMB, A450
[3] = target: mouse serum albumin (mouse) (UniProt P07724); assay: monoclonal phage ELISA, pH 6 and pH 7.4
[4] = target: mouse serum albumin (mouse) (UniProt P07724); assay: monoclonal phage ELISA at pH 6: Fab on phage, about 10^8 CFU/well, on antigen coated at 5 ug/ml; anti-human kappa-HRPO, TMB, A450
[5] = target: mouse serum albumin (mouse) (UniProt P07724); assay: ELISA, soluble Fab, antigen coated at 5 µg/ml
[6] = target: mouse serum albumin (mouse) (UniProt P07724); assay: monoclonal phage ELISA at pH 7.4: Fab on phage, about 10^8 CFU/well, on antigen coated at 5 ug/ml; anti-human kappa-HRPO, TMB, A450
[7] = target: mouse serum albumin (mouse) (UniProt P07724); assay: ELISA, purified soluble Fab, antigen coated at 5 µg/ml, pH 6 and pH 7.4

binding [1]: binds | binding [2]: binds | binding [3]: binds | binding [4]: binds | binding [5]: binds | binding [6]: binds | binding [7]: binds
B1: SL335 (Fab, V domains shown)
VH: QVQLVQSGGGPVKPGGSLRLSCAASGFMFRAYSMNWVRQAPGKGLEWVSSISSSGRYIHYADSVKGRFTISRDNAKNSLYLQMNSLRAEDTAVYYCARETVMAGKALDYWGQGTLVTVSS
VL: ELVLTQSPGTLSLSPGETATLSCRASQSVGSNLAWYQQKPGQAPRLLIYGASTGATGVPARFSGSRSGTDFTLTITSLQPEDFATYYCQQYYSFLAKTFGQGTQLEIKR
